Taken from: PubChem BioAssay AID504784 (Drosophila RNAi Screening Center, 2011)

- Assay: 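Genome-wide knock-down for genes giving too much or too little stored lipid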 (primary screen)
- Cells: Drosophila Kc167 embryonic cells
- Reagents: long dsRNA against Drosophila genes, about 250 ng dsRNA per well
- Duration: 4 days
- Conditions: cells fed 400 µM oleic acid bound to BSA
- Detection: 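Microscope images give a droplet-to-nucleus area ratio, taken as log and converted to a screen-wide B-score; higher values mean greater lipid storage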
- Reading the numbers: droplet/nuclear area B-score: higher = more stored lipid (overstorage)
The deposit covers about 17,000 reagents; below is an unselected part of those that have a named target and a result. 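Each column is one replicate's B-score; the combined score over replicates was not deposited, so single values may mislead.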 Reagents against one gene are numbered here. A plus sign joins genes that one reagent is predicted to hit. Not all columns of the deposit are shown. Reagent sequences are not shown.

| droplet/nuclear area B-score, replicate 1 | droplet/nuclear area B-score, replicate 2 | Gene | reagent no. |
| --- | --- | --- | --- |
| 0.0564 | 1.75 | Pgant1 | 1 |
| -1.05 | -1.41 | PIG-L | 1 |
| 1.28 | -0.498 | p38c | 1 |
| 4.27 | -1.55 | CG6472 | 1 |
| 1 | 1.65 | CG33155 + mRpL53 | 1 |
| -0.0974 | -0.688 | Crk | 1 |
| 0.212 | -0.624 | CG32228 | 1 |
| -0.252 | -1.97 | CG34051 | 1 |
| -0.0314 | -0.402 | CG5906 | 1 |
| 0.0485 | -0.0899 | CG11668 | 1 |
| -0.0512 | 0.915 | Pgant6 | 1 |
| 0.0309 | -1.09 | Grx1t | 1 |
| 0.0175 | 0.466 | Gas41 | 1 |
| -0.638 | -1.57 | Cpr65Ea | 1 |
| 0.853 | -1.66 | bou | 1 |
| 0.634 | 1.67 | CG1690 | 1 |
| 2.14 | 3.39 | CG3618 | 1 |
| 2.5 | -0.249 | Cpr23B | 1 |
| 1.67 | 2.38 | CG34462 | 1 |
| 0.812 | -0.0884 | DIP-eta | 1 |
| 1.05 | 0.1 | pum | 1 |
| 0.757 | 1.35 | pum | 2 |
| 0.876 | -0.215 | pum | 3 |
| 0.975 | 1.24 | pum | 4 |
| 0.947 | 0.923 | pum | 5 |
| 1.76 | -1.31 | CG14933 + CG42486 | 1 |
| -2.37 | -0.0294 | CG10343 | 1 |
| -0.193 | -3.37 | CG3091 | 1 |
| 2 | 0.666 | Nhe2 | 1 |
| 0.136 | -0.512 | Nhe2 | 2 |
| -0.135 | -1.45 | JTBR | 1 |
| -0.394 | -1.58 | CG8159 | 1 |
| -1.3 | -0.585 | Odc1 | 1 |
| 0.547 | 0.187 | CG8420 | 1 |
| -1.11 | -1.49 | Alk | 1 |
| -0.378 | -0.159 | Alk | 2 |
| 0.501 | -0.339 | dcma | 1 |
| 0.0192 | 0.487 | dcma | 2 |

Only “droplet/nuclear area B-score, replicate 1” (6 entries from above):
pum #4 = 0.975
pum #5 = 0.947
CG14933 + CG42486 = 1.76
CG10343 = -2.37
CG3091 = -0.193
Nhe2 #1 = 2

The results go on:
| droplet/nuclear area B-score, replicate 1 | droplet/nuclear area B-score, replicate 2 | Gene | reagent no. |
| --- | --- | --- | --- |
| -1.22 | -0.318 | iav | 1 |
| 3.22 | 0.0558 | CG30015 | 1 |
| 0.016 | -0.696 | CG30015 | 2 |
| 0.742 | -0.0421 | CG30015 | 3 |
| -0.894 | 0.238 | Cyp4d20 | 1 |
| 1.03 | 0.177 | PPO3 | 1 |
| 0.303 | -0.000676 | CG31606 | 1 |
| -0.79 | 1.02 | pcs | 1 |
| -2.3 | -0.539 | Cln7 | 1 |
| 0.137 | 0.488 | CG15531 | 1 |
| -1.32 | -0.933 | CG8142 | 1 |
| 8.13 | 7.98 | PPP1R15 | 1 |
| 0.194 | 0.706 | Gyg | 1 |
| -1.65 | 0.339 | Gyg | 2 |
| 1.2 | -0.425 | CG10164 | 1 |
| 0.0363 | 3.22 | CG4168 | 1 |
| -1.6 | 1.1 | CG4168 | 2 |
| 0.388 | -0.00139 | CG4168 | 3 |
| -1.14 | 1.46 | CG4168 | 4 |
